# From the supplement of paper PMC8728848
# This is one part of the list.
# B1: truncCC1G-10077 (Coprinopsis cinerea) (protein)
# chain: MHHHHHHHHPLPSPGPGWVLIQNGGTGKFLCSTPSGDIGTADGPETVYDYSVQWRFIQREYTGVYHVVNRATGAYLRQIGTSMPSIGLAEENDDELKDWWMLETYDNSEIGLASIISRWTGNVLDHYGGVSVQALDNNTENSYRSWAIIPARDWLTSFSLVNGQGGLCLAAQYAREETRLSTTANVNDFHAQWVFRKPSGSSGYTIQNKYNNHYVGGTSARWELVVCCNKYFGIRNTSTQKYLAIEDGQVTFQDQDMTDRKQCWELCSGRATDTSGNDYDLIYMDDDLLEVMIPWVGDKQGDLKHYIEKRATKKPPKDKGGWQLPAAGLIKKPKFNDIRQLLQELIEQWEWDVVNEEREQIQTLVSIDEAEARRLLGRRPHPDIVAAYQRSRSSTLFRIDRQGYFNIAGDRYVNIQGQYGDDSYFHIALPVGVRFGREQIRRFLRDSLDRSTSVTITPTTCKPPSGGPDYNRDPDSDGDNSWIKWTIAVVGTSAIKHSEL
# Key:
# Assay in all cases: glycan array binding signal (z-score within array); higher = stronger binding
# Details in all cases: glycan notation: IUPAC condensed, linker removed
# [1] = target: Fuc(a1-3)[Gal3S(b1-4)]GlcNAc6S
# Outline: (§1)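 Glycan array data came from 3228 arrays in the Consortium for Functional Glycomics database, and only arrays with an available protein sequence were kept. Glycan names were put into IUPAC-condensed notation, and columns mapping to the same glycan were averaged. The binding signal is a within-array Z-score, averaged across arrays of one protein sequence run at different concentrations or buffers and across linkers. A negative Z-score can be read as non-binding.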
# [2] = target: Fuc(a1-3)[GalNAc(b1-4)]GlcNAc
# Outline: as §1
# [3] = target: Fuc(a1-3)[GalNAc(b1-4)]GlcNAc6S
# Outline: as §1
# Fuc(a1-4)GlcNAc = target: Fuc(a1-4)GlcNAc
# Outline: as §1
# Fuc(b1-3)GlcNAc = target: Fuc(b1-3)GlcNAc
# Outline: as §1
# Gal(a1-2)Gal = target: Gal(a1-2)Gal
# Outline: as §1
# Gal(a1-3)Gal = target: Gal(a1-3)Gal
# Outline: as §1
# Gal(a1-3)Gal(b1-3)GlcNAc = target: Gal(a1-3)Gal(b1-3)GlcNAc
# Outline: as §1
# [4] = target: Gal(a1-3)Gal(b1-3)GlcNAc(b1-2)Man
# Outline: as §1
# [5] = target: Gal(a1-3)Gal(b1-3)GlcNAc(b1-2)Man(a1-3)[Gal(a1-3)Gal(b1-3)GlcNAc(b1-2)Man(a1-6)]Man(b1-4)GlcNAc(b1-4)GlcNAc
# Outline: as §1
# [6] = target: Gal(a1-3)Gal(b1-3)GlcNAc(b1-3)GalNAc
# Outline: as §1
# [7] = target: Gal(a1-3)Gal(b1-3)GlcNAc(b1-6)GalNAc
# Outline: as §1
# [8] = target: Gal(a1-3)Gal(b1-3)[Fuc(a1-4)]GlcNAc(b1-2)Man(a1-3)[Gal(a1-3)Gal(b1-3)[Fuc(a1-4)]GlcNAc(b1-2)Man(a1-6)]Man(b1-4)GlcNAc(b1-4)GlcNAc
# Outline: as §1
# Gal(a1-3)Gal(b1-4)Glc = target: Gal(a1-3)Gal(b1-4)Glc
# Outline: as §1
# Gal(a1-3)Gal(b1-4)GlcNAc = target: Gal(a1-3)Gal(b1-4)GlcNAc
# Outline: as §1
# [9] = target: Gal(a1-3)Gal(b1-4)GlcNAc(b1-2)Man
# Outline: as §1
# [10] = target: Gal(a1-3)Gal(b1-4)GlcNAc(b1-2)Man(a1-3)[Gal(a1-3)Gal(b1-4)GlcNAc(b1-2)Man(a1-6)]Man(b1-4)GlcNAc(b1-4)GlcNAc
# Outline: as §1
# [11] = target: Gal(a1-3)Gal(b1-4)GlcNAc(b1-3)GalNAc
# Outline: as §1
# [12] = target: Gal(a1-3)Gal(b1-4)GlcNAc(b1-6)GalNAc
# Outline: as §1
# [13] = target: Gal(a1-3)Gal(b1-4)[Fuc(a1-3)]GlcNAc
# Outline: as §1
# [14] = target: Gal(a1-3)Gal(b1-4)[Fuc(a1-3)]GlcNAc(b1-2)Man(a1-3)[Gal(a1-3)Gal(b1-4)[Fuc(a1-3)]GlcNAc(b1-2)Man(a1-6)]Man(b1-4)GlcNAc(b1-4)GlcNAc
# Outline: as §1
# Gal(a1-3)GalNAc = target: Gal(a1-3)GalNAc
# Outline: as §1
# [15] = target: Gal(a1-3)[Gal(a1-4)]Gal(b1-4)GlcNAc
# Outline: as §1
# [16] = target: Gal(a1-4)Gal(b1-3)GlcNAc(b1-2)Man(a1-3)[Gal(a1-4)Gal(b1-3)GlcNAc(b1-2)Man(a1-6)]Man(b1-4)GlcNAc(b1-4)GlcNAc
# Outline: as §1
# Gal(a1-4)Gal(b1-4)Glc = target: Gal(a1-4)Gal(b1-4)Glc
# Outline: as §1
# Gal(a1-4)Gal(b1-4)GlcNAc = target: Gal(a1-4)Gal(b1-4)GlcNAc
# Outline: as §1
# [17] = target: Gal(a1-4)Gal(b1-4)GlcNAc(b1-2)Man(a1-3)[Gal(a1-4)Gal(b1-4)GlcNAc(b1-2)Man(a1-6)]Man(b1-4)GlcNAc(b1-4)GlcNAc
# Outline: as §1
# [18] = target: Gal(a1-4)Gal(b1-4)GlcNAc(b1-3)Gal(b1-4)Glc
# Outline: as §1
# Gal(a1-4)GlcNAc = target: Gal(a1-4)GlcNAc
# Outline: as §1
# Gal(a1-6)Glc = target: Gal(a1-6)Glc
# Outline: as §1
# Gal(b1-2)Gal = target: Gal(b1-2)Gal
# Outline: as §1
# Gal(b1-3)Gal = target: Gal(b1-3)Gal
# Outline: as §1
# Gal(b1-3)Gal(b1-4)GlcNAc = target: Gal(b1-3)Gal(b1-4)GlcNAc
# Outline: as §1
# Gal(b1-3)GalNAc = target: Gal(b1-3)GalNAc
# Outline: as §1
# [19] = target: Gal(b1-3)GalNAc(a1-3)[Fuc(a1-2)]Gal(b1-4)Glc
# Outline: as §1
# [20] = target: Gal(b1-3)GalNAc(a1-3)[Fuc(a1-2)]Gal(b1-4)GlcNAc
# Outline: as §1
# Gal(b1-3)GalNAc(b1-3)Gal = target: Gal(b1-3)GalNAc(b1-3)Gal
# Outline: as §1
binder,measurement,setting,value
B1,glycan array binding signal (z-score),[1],1.49
same,glycan array binding signal (z-score),[2],2.42
same,glycan array binding signal (z-score),[3],-0.037
same,glycan array binding signal (z-score),Fuc(a1-4)GlcNAc,-0.054
same,glycan array binding signal (z-score),Fuc(b1-3)GlcNAc,-1.34
same,glycan array binding signal (z-score),Gal(a1-2)Gal,-1.16
same,glycan array binding signal (z-score),Gal(a1-3)Gal,-0.374
same,glycan array binding signal (z-score),Gal(a1-3)Gal(b1-3)GlcNAc,-1.09
same,glycan array binding signal (z-score),[4],-1.05
same,glycan array binding signal (z-score),[5],1.97
same,glycan array binding signal (z-score),[6],1.23
same,glycan array binding signal (z-score),[7],0.981
same,glycan array binding signal (z-score),[8],0.782
same,glycan array binding signal (z-score),Gal(a1-3)Gal(b1-4)Glc,-0.412
same,glycan array binding signal (z-score),Gal(a1-3)Gal(b1-4)GlcNAc,-0.741
same,glycan array binding signal (z-score),[9],-0.428
same,glycan array binding signal (z-score),[10],1.38
same,glycan array binding signal (z-score),[11],-0.235
same,glycan array binding signal (z-score),[12],-0.144
same,glycan array binding signal (z-score),[13],-0.868
same,glycan array binding signal (z-score),[14],2.58
same,glycan array binding signal (z-score),Gal(a1-3)GalNAc,-0.615
same,glycan array binding signal (z-score),[15],2.08
same,glycan array binding signal (z-score),[16],1.86
same,glycan array binding signal (z-score),Gal(a1-4)Gal(b1-4)Glc,0.224
same,glycan array binding signal (z-score),Gal(a1-4)Gal(b1-4)GlcNAc,-0.463
same,glycan array binding signal (z-score),[17],0.716
same,glycan array binding signal (z-score),[18],-0.848
same,glycan array binding signal (z-score),Gal(a1-4)GlcNAc,-0.869
same,glycan array binding signal (z-score),Gal(a1-6)Glc,-0.488
same,glycan array binding signal (z-score),Gal(b1-2)Gal,-0.713
same,glycan array binding signal (z-score),Gal(b1-3)Gal,0.191
same,glycan array binding signal (z-score),Gal(b1-3)Gal(b1-4)GlcNAc,-0.766
same,glycan array binding signal (z-score),Gal(b1-3)GalNAc,-0.815
same,glycan array binding signal (z-score),[19],-0.935
same,glycan array binding signal (z-score),[20],-1.05
same,glycan array binding signal (z-score),Gal(b1-3)GalNAc(b1-3)Gal,0.405

# Reformatted tab-delimited: entries from further up
binder	measurement	setting	value
B1	glycan array binding signal (z-score)	Gal(a1-4)Gal(b1-4)Glc	0.224
same	glycan array binding signal (z-score)	Gal(a1-4)Gal(b1-4)GlcNAc	-0.463
same	glycan array binding signal (z-score)	[17]	0.716
same	glycan array binding signal (z-score)	[18]	-0.848
same	glycan array binding signal (z-score)	Gal(a1-4)GlcNAc	-0.869
same	glycan array binding signal (z-score)	Gal(a1-6)Glc	-0.488
same	glycan array binding signal (z-score)	Gal(b1-2)Gal	-0.713
same	glycan array binding signal (z-score)	Gal(b1-3)Gal	0.191
same	glycan array binding signal (z-score)	Gal(b1-3)Gal(b1-4)GlcNAc	-0.766
same	glycan array binding signal (z-score)	Gal(b1-3)GalNAc	-0.815
